According to the supplement of paper PMC8975748:
Where a name gives a salt, the structure may show the parent alone. ± gives the standard deviation of the averaged measurements. The list shows a part of the results. These are raw signals, not scaled to a control.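 The yeast community starts from one strain carrying four plasmids, each with an amino-acid or uracil synthesis gene and a fluorescent protein. Random plasmid loss creates mixed prototroph and auxotroph subpopulations. Cells were fixed and counted by automated confocal fluorescence imaging, and DMSO-treated wells served as the vehicle reference.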

Test system: Saccharomyces cerevisiae BY4741 SeMeCo community
Assay: imaged cell count per well (cells); higher = more cells
Settings: 10 µM; 24 h; SM minimal medium
Protocol: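 Same SeMeCo high-content imaging drug screen: Selleck FDA-approved drugs at 10 µM, 24 h in SM medium, 384-well plates, 3 replicates.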

| Structure (SMILES) | imaged cell count per well |
| --- | --- |
| COc1ccc2cc(C(=O)O)ccc2c1 [6-Methoxy-2-naphthoic acid] | 11500 ± 890 |
| Cn1c(=O)c2c(ncn2CC(O)CO)n(C)c1=O (configuration not stated) [Dyphylline] | 22000 ± 7600 |
| CN1CCN2c3ncccc3Cc3ccccc3C2C1 (configuration not stated) [Mirtazapine] | 24100 ± 7200 |
| CN(C)CCOc1ccc(/C(=C(/CCCl)c2ccccc2)c2ccccc2)cc1 [Toremifene Citrate] | 23300 ± 6600 |
| CCCCNc1ccc(C(=O)OCCN(C)C)cc1 [Tetracaine HCl] | 19400 ± 6900 |
| O=c1ccc2cc(O)c(O)cc2o1 [Esculetin] | 20800 ± 9700 |
| Cc1ncc([N+](=O)[O-])n1CC(O)CCl (configuration not stated) [Ornidazole] | 19000 ± 6000 |

Two successive entries already listed:

| Structure (SMILES) | imaged cell count per well |
| --- | --- |
| CN(C)CCOc1ccc(/C(=C(/CCCl)c2ccccc2)c2ccccc2)cc1 [Toremifene Citrate] | 23300 ± 6600 |
| CCCCNc1ccc(C(=O)OCCN(C)C)cc1 [Tetracaine HCl] | 19400 ± 6900 |
